The text below walks through data of the supplement of paper PMC10849652.

Sequences of proteins named here, by UniProt entry; tags and fusion partners are left off. A change or cut given only in a name is not applied to a line headed by its entry.
UniProt Q9H6S1, whole entry, looked up: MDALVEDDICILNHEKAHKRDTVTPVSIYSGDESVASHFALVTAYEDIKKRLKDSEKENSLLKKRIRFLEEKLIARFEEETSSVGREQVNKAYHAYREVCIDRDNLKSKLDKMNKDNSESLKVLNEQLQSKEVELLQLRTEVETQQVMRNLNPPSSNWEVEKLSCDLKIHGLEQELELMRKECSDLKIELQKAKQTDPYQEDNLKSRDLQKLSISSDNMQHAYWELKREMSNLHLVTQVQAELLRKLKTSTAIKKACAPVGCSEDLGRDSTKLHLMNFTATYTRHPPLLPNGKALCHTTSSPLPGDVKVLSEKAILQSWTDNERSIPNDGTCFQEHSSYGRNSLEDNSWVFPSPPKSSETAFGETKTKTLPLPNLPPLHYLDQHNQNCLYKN
UniProt P18847: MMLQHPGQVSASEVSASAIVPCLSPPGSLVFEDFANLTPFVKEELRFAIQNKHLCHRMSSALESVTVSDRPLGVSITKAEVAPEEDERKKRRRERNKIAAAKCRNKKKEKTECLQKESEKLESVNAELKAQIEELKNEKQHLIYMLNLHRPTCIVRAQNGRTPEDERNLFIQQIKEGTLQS
UniProt P56378: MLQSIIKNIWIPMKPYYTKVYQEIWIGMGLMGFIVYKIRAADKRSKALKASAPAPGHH
UniProt P00966: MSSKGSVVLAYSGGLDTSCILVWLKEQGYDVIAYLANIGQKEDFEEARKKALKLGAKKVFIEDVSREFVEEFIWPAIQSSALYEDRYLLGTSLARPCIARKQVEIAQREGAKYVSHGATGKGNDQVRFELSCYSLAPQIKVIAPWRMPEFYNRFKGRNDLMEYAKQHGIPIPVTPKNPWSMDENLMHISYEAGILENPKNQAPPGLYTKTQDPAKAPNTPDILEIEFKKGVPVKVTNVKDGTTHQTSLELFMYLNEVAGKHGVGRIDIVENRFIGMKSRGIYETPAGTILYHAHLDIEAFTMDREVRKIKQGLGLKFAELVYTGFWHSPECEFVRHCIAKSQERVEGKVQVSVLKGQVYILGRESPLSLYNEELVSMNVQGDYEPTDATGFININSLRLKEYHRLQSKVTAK
UniProt Q96QE3: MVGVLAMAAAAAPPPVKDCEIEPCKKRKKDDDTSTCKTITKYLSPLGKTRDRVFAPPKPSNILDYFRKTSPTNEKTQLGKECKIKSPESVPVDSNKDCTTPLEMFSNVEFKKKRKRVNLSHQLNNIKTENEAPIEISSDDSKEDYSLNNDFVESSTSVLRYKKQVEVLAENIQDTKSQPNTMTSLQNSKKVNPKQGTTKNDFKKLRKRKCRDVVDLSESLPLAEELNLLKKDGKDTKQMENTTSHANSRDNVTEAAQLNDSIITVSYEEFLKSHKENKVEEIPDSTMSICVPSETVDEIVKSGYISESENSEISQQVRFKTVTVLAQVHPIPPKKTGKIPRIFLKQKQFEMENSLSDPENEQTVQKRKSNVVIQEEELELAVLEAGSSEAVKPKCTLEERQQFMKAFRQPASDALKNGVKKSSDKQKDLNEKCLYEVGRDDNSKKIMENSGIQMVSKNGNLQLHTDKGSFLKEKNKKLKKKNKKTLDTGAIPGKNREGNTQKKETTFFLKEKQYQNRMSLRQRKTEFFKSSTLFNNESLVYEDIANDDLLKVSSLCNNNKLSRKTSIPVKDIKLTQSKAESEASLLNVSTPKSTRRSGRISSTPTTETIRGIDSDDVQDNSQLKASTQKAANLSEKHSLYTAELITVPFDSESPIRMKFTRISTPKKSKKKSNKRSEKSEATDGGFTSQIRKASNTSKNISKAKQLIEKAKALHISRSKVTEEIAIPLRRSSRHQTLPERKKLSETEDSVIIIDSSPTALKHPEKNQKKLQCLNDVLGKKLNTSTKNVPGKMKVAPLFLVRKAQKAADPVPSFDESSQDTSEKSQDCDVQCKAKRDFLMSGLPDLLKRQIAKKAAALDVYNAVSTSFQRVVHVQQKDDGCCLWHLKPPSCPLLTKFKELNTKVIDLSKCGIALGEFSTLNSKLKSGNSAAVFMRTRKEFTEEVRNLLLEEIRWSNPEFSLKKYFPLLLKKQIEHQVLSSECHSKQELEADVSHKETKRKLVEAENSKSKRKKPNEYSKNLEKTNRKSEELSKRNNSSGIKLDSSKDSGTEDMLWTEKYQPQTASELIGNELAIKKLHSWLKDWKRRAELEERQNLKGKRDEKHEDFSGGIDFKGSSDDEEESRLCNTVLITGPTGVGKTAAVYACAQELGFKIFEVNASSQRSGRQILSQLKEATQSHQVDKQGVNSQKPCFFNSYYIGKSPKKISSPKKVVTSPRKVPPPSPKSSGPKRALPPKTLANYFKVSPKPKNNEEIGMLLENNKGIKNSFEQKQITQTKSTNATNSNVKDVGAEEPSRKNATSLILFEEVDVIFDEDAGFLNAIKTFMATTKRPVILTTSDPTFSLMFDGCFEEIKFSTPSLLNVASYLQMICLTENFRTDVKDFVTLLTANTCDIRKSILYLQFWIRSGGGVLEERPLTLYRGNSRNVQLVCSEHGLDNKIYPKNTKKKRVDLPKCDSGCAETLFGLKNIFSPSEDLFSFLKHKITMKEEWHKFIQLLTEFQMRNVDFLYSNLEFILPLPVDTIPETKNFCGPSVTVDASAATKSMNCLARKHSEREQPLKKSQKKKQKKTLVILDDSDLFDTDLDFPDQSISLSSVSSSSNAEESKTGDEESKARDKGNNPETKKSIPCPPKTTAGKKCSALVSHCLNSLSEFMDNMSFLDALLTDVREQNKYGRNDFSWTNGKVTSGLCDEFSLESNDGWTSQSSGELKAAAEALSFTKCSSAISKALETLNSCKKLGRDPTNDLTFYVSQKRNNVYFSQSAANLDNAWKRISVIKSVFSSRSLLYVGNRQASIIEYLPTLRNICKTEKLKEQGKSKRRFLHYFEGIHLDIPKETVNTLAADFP
UniProt Q14CW9: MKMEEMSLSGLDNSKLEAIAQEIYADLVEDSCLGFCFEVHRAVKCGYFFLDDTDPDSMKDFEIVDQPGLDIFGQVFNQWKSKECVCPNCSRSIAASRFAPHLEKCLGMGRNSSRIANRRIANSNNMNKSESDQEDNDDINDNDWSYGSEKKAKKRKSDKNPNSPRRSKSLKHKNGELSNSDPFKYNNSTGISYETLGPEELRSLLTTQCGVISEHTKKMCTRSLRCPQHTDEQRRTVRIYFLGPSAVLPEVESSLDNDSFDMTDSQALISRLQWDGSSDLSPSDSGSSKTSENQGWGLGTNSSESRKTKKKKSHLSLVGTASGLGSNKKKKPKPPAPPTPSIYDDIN
UniProt Q9UN42: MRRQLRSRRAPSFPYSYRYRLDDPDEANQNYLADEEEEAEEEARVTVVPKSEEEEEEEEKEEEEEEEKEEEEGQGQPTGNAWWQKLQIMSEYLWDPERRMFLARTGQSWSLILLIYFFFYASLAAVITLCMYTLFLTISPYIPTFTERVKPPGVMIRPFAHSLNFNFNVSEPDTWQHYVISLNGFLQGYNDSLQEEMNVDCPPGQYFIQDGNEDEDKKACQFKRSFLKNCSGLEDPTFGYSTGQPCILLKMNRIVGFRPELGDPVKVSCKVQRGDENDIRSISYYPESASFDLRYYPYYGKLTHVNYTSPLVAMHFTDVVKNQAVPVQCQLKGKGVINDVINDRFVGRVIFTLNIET
UniProt O95260: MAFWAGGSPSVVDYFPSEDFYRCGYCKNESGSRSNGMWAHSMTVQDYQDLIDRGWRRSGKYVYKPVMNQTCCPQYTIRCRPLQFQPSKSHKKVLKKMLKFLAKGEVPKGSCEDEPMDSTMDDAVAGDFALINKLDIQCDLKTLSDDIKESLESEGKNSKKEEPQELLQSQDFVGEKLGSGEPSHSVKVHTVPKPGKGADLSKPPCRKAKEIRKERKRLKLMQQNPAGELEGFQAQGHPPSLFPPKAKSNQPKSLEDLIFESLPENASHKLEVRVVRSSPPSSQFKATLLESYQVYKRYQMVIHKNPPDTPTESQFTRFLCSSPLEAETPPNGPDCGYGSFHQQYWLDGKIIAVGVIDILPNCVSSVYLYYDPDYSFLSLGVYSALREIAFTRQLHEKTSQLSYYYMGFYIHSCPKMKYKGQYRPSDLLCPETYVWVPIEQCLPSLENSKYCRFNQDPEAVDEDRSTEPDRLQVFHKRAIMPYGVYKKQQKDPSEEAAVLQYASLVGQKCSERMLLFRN
UniProt Q96NS5: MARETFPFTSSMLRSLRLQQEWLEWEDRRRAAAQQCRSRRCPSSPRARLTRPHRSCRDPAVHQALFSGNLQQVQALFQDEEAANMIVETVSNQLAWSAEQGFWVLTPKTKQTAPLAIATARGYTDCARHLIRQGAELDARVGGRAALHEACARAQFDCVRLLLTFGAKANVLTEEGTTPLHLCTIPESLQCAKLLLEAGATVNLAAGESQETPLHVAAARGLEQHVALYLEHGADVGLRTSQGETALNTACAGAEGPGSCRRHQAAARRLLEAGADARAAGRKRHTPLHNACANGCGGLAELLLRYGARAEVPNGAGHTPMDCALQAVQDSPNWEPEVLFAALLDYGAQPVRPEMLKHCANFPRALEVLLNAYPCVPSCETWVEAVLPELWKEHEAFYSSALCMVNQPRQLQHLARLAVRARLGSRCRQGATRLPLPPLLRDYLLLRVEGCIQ
UniProt P18850: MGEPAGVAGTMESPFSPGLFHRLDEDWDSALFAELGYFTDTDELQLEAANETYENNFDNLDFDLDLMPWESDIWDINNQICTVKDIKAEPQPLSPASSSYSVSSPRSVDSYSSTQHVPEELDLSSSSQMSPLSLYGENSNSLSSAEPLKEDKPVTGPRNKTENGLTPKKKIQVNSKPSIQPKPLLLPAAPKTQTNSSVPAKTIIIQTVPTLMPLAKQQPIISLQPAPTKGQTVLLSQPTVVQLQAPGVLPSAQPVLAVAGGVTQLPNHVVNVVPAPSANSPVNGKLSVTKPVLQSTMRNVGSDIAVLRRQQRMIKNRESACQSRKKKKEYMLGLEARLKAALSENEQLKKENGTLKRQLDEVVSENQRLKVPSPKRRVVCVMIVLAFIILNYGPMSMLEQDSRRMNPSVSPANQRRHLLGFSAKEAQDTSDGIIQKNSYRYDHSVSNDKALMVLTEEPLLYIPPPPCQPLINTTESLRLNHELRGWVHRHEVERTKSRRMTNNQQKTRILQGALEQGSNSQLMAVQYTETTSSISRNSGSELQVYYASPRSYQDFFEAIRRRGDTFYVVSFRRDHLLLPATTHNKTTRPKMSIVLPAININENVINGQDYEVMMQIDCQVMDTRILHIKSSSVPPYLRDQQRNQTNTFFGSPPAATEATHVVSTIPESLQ
UniProt Q93050, whole entry, looked up: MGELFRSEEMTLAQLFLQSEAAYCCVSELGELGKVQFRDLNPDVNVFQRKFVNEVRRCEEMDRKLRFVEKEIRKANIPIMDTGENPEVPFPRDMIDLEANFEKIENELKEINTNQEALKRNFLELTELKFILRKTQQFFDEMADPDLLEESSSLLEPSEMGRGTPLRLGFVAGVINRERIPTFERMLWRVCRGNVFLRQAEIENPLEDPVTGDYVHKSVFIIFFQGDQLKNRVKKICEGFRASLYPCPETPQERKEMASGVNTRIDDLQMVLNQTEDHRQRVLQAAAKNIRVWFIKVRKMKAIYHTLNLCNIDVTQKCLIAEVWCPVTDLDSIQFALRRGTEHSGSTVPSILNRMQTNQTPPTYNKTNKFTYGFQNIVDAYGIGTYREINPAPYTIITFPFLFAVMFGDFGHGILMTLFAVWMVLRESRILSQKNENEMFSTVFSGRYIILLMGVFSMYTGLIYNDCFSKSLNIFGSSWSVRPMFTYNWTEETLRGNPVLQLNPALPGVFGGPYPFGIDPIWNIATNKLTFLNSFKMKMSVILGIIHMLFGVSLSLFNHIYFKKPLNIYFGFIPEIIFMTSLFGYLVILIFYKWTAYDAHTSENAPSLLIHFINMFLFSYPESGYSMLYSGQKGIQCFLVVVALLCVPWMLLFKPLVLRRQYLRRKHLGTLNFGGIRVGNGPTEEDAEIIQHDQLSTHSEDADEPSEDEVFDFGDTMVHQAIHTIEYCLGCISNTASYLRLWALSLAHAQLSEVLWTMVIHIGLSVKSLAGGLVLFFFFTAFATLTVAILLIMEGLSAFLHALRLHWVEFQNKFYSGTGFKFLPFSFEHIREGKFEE
UniProt Q9Y575: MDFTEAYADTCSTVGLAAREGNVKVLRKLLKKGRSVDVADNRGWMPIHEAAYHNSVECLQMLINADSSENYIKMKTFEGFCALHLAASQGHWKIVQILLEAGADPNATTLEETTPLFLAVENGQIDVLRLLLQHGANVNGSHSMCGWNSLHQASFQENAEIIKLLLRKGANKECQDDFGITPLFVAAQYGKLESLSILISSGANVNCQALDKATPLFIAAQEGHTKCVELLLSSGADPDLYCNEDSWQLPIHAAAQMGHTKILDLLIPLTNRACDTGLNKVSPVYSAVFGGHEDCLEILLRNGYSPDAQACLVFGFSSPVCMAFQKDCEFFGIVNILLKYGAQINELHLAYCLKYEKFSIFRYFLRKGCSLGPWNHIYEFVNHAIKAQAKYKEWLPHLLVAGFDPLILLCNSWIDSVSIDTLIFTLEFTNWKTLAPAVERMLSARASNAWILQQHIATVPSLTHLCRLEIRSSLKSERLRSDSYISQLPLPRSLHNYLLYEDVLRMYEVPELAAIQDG

Experiment in all cases: log2 fold change, soluble protein after heating vs DMSO (PISA); higher = thermal stabilisation; K562 lysate, 10 uM; active = over 0.2 and 3.5 SD of the protein, either way, in both replicates (recomputed)
Compound in test [1]: NCC(=O)Nc1ccc(-n2nc(C(F)(F)F)cc2-c2ccc3c(ccc4ccccc43)c2)cc1
Summed up: (§1)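 Log-two fold change in thermal stability relative to solvent controls is reported from duplicates. For each sample, crude K562 extract from dounce-homogenised pellets in PBS pH 7.4 with 1 mM MgCl2, at 1 mg/mL protein, was treated with 10 μM compound for 30 min. Aliquots heated for 3 min across 48°C-58°C were pooled, brought to 0.5% NP-40 at 4°C and cleared at 21,000xg for 90 min. The supernatant was quantified by TMTpro 16plex LC-MS/MS with channel sums equalised.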

Compound in test [2]: O=C(CCCCCCC(=O)Nc1ccccc1)NO [vorinostat]
Summed up:
as §1

Compound in test [3]: O=C(O)c1ccc2c(c1)nc(Nc1cccc(Cl)c1)c1ccncc12 [silmitasertib]
Summed up:
as §1

Compound in test [4]: O=C1NC(=O)C(c2cnc3ccccn23)=C1c1cn2c3c(cc(F)cc13)CN(C(=O)N1CCCCC1)CC2
Summed up:
as §1

Compound in test [5]: c1cn2cc(-c3ccc4cn[nH]c4c3)nc(Nc3ccc(N4CCOCC4)cc3)c2n1 [entospletinib]
Summed up:
as §1

Some of the results follow.

ATP2B4 (UniProt P23634): the log2 fold change in test [1] was inactive: -0.026; in test [2], inactive: -0.042; in test [3], inactive: -0.003; in test [4], inactive: -0.079; in test [5], inactive: -0.042.
With ATP5PB (UniProt P24539), the log2 fold change in test [1] is inactive: 0.01; in test [2] it was inactive: 0.125; in test [3], inactive: -0.014; in test [4], inactive: -0.021; in test [5], inactive: -0.011.
For ASMTL (UniProt O95671), the log2 fold change in test [1] is inactive: -0.013; in test [2] it was inactive: -0.122; in test [3] it was inactive: 0.002; in test [4], inactive: -0.027; in test [5], inactive: 0.009.
As for ATP6V1E2 (UniProt Q96A05), the log2 fold change was inactive: 0.046 in test [1]; inactive: 0.114 in test [2]; inactive: -0.006 in test [3]; inactive: 0.003 in test [4]; inactive: -0.003 in test [5].
Taken in the same sequence, the figures for ATG16L1 (UniProt Q676U5) were inactive: 0.023, inactive: 0.07, inactive: -0.007, inactive: -0.026 and inactive: -0.033.
AUNIP isoform 2 (UniProt Q9H7T9): the log2 fold change in test [1] is inactive: 0.023; in test [2] it was inactive: -0.219; in test [3] it was inactive: -0.009; in test [4], inactive: 0.014; in test [5] it was inactive: 0.08.
Turning to AZI2 (UniProt Q9H6S1), the log2 fold change in test [1] was inactive: 0.06; in test [2] it was inactive: -0.028; in test [3] it was inactive: 0.034; in test [4] it was inactive: 0.048; in test [5] it was inactive: 0.079.
Consider B3GAT3 (UniProt O94766), for which the log2 fold change in test [1] is inactive: 0; in test [2], inactive: 0.023; in test [3], inactive: 0.047; in test [4], inactive: 0; in test [5], inactive: 0.056.
Turning to ATG10 (UniProt Q9H0Y0), the log2 fold change is inactive: -0.032 in test [1]; active: -0.242 in test [2]; inactive: 0.049 in test [3]; inactive: -0.023 in test [4]; inactive: 0.034 in test [5].
The matching figures for ATF3 (UniProt P18847): inactive: 0.001, inactive: -0.041, inactive: 0.128, inactive: -0.025 and inactive: -0.208.
As to ATOX1 (UniProt O00244), the log2 fold change is inactive: -0.051 in test [1]; inactive: 0.095 in test [2]; inactive: 0.009 in test [3]; inactive: 0.089 in test [4]; inactive: -0.078 in test [5].
For the target ATP5MPL (UniProt P56378), the log2 fold change in test [1] is inactive: -0.103; in test [2], inactive: 0.077; in test [3], inactive: 0.034; in test [4] it was inactive: -0.02; in test [5], inactive: 0.01.
Regarding ATF6B (UniProt Q99941), the log2 fold change in test [4] was inactive: -0.054.
Regarding ASXL3 (UniProt Q9C0F0), the log2 fold change is inactive: -0.129 in test [2], inactive: 0.058 in test [3] and inactive: 0.024 in test [4].
With B3GNTL1 (UniProt Q67FW5), the log2 fold change is inactive: 0.019 in test [4] and inactive: -0.065 in test [5].
For ASS1 (UniProt P00966), the log2 fold change was inactive: -0.193 in test [2], inactive: 0.034 in test [3], inactive: 0.035 in test [4] and inactive: -0.058 in test [5].
On to ATAD5 (UniProt Q96QE3), for which the log2 fold change in test [2] is inactive: -0.048; in test [3], inactive: 0.072; in test [5] it was inactive: -0.088.
Regarding ATXN7L3 isoform 2 (UniProt Q14CW9), the log2 fold change in test [2] is inactive: -0.348; in test [3], inactive: -0.034; in test [4], inactive: -0.018.
Turning to ATP5F1C isoform 2 (UniProt P36542), the log2 fold change in test [4] was inactive: 0.07.
For ATP5F1B (UniProt H0YI37), the values for the log2 fold change in test [2], in test [3] and in test [4] were inactive: 0.509, inactive: -0.082 and inactive: 0.917, respectively.
As to ATP5F1A (UniProt K7ENJ4), the log2 fold change is inactive: -0.43 in test [2] and inactive: -0.037 in test [3].
On to ASXL1 (UniProt Q8IXJ9), for which the log2 fold change in test [2] is inactive: 0.03; in test [3], inactive: 0.001; in test [4] it was inactive: 0.002; in test [5], inactive: -0.014.
For the target ATP11C, A0A067XG54, the log2 fold change was inactive: 0.246 in test [2], inactive: 0 in test [3] and inactive: -0.001 in test [4].
For ATP1B4 (UniProt Q9UN42), in test [4], the log2 fold change was inactive: -0.064.
With ATE1 (UniProt O95260), the log2 fold change in test [4] was inactive: 0.028.
Consider B3GALNT2 (UniProt Q8NCR0), for which, in test [4], the log2 fold change was inactive: -0.337.
In the case of ASXL2 (UniProt Q76L83), the results for the log2 fold change in test [2], in test [3] and in test [4] were inactive: -0.104, inactive: -0.016 and inactive: 0.057, respectively.
On to ASPRV1 (UniProt Q53RT3), for which the log2 fold change is inactive: 0.294 in test [2] and inactive: -0.31 in test [3].
For ASB16 (UniProt Q96NS5), the log2 fold change in test [4] was inactive: 0.314.
With ATP5F1B (UniProt F8W079), the log2 fold change in test [5] is inactive: 0.
Regarding ATF6 (UniProt P18850), the log2 fold change in test [2] was inactive: -0.287; in test [3], inactive: 0.167; in test [5] it was inactive: -0.014.
For the target ASTE1 (UniProt Q2TB18), the log2 fold change in test [4] is inactive: -0.382.
As to ATP6V0A1 (UniProt Q93050), the log2 fold change in test [2] was inactive: 0.081; in test [3], inactive: 0.113; in test [4], inactive: 0.07.
As to ASB3 isoform 3 (UniProt Q9Y575), the log2 fold change is inactive: 0.075 in test [1] and inactive: -0.026 in test [5].
